The other results are listed elsewhere or left out.
Columns and labels:
Experiment in all cases: log2 fold change, soluble protein after heating vs DMSO (PISA); higher = thermal stabilisation; K562 lysate, 10 uM; active = over 0.2 and 3.5 SD of the protein, either way, in both replicates (recomputed)
ibrutinib = compound: C=CC(=O)N1CCC[C@@H](n2nc(-c3ccc(Oc4ccccc4)cc3)c3c(N)ncnc32)C1 [ibrutinib]
Procedure, shortened: (§1)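 To prepare the extract, K562 pellets were dounce-homogenised in PBS pH 7.4 with 1 mM MgCl2, giving crude material at 1 mg/mL protein. This was treated with 10 μM compound for 30 min, then heated in aliquots for 3 min over 48°C-58°C before pooling and addition of NP-40 to 0.5% at 4°C. Centrifugation at 21,000xg for 90 min left soluble protein in the supernatant, which TMTpro 16plex LC-MS/MS quantified with equalised channel sums. Results are log-two fold changes in thermal stability compared with solvent controls, from duplicates.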

Amino acid sequences for entries named in this document (tags omitted). A change or cut given only in a name is not applied to a line headed by its entry.
UniProt Q9HCM3: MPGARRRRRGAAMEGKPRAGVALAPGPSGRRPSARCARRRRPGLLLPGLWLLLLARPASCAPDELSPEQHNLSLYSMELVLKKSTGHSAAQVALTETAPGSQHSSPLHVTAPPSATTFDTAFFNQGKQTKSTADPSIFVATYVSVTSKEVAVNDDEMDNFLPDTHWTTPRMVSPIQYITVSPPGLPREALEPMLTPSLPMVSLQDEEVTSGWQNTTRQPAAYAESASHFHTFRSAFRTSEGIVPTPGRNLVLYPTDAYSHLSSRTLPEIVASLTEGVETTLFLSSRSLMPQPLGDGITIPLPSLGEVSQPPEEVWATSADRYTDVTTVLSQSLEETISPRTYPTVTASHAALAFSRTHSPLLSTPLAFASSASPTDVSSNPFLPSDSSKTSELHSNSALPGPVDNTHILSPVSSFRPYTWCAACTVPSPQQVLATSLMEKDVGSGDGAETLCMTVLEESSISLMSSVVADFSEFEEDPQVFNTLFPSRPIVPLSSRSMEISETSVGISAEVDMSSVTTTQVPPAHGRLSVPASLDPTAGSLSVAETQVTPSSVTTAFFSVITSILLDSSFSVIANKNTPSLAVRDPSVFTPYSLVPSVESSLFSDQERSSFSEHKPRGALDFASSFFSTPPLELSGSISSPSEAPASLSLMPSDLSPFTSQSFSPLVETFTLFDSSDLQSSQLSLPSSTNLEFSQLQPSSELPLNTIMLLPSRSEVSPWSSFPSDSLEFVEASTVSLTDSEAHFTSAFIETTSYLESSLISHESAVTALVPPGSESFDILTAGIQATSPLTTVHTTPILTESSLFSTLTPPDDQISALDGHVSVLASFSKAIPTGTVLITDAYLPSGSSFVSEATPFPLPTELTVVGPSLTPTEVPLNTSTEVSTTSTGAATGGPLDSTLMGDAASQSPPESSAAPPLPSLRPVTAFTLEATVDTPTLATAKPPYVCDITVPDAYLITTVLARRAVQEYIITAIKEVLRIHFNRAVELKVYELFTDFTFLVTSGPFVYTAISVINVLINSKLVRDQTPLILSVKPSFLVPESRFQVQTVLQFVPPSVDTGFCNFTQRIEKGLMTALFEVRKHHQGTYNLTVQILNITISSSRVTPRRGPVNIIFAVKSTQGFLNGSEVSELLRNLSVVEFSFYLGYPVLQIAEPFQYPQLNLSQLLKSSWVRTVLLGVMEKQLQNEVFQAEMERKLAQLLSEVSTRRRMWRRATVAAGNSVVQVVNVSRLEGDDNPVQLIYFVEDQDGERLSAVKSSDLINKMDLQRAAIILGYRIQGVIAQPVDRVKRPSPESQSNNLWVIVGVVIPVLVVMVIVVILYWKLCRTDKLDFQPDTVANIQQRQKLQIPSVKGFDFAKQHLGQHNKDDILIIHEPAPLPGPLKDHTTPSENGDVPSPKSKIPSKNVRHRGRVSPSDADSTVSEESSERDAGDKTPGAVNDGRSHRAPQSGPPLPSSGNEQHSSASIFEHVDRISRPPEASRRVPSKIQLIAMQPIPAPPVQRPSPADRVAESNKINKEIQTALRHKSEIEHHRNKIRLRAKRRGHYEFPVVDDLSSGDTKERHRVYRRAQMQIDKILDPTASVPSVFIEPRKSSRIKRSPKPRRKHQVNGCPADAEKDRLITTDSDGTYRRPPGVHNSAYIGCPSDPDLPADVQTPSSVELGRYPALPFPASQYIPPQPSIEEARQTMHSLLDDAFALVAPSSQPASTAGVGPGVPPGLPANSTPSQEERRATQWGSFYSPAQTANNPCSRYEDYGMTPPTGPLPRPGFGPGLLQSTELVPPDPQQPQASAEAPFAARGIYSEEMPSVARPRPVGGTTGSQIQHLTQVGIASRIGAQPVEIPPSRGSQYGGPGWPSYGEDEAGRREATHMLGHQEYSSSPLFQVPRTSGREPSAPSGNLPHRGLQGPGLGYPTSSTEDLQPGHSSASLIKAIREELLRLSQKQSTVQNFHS
UniProt Q9HCI6: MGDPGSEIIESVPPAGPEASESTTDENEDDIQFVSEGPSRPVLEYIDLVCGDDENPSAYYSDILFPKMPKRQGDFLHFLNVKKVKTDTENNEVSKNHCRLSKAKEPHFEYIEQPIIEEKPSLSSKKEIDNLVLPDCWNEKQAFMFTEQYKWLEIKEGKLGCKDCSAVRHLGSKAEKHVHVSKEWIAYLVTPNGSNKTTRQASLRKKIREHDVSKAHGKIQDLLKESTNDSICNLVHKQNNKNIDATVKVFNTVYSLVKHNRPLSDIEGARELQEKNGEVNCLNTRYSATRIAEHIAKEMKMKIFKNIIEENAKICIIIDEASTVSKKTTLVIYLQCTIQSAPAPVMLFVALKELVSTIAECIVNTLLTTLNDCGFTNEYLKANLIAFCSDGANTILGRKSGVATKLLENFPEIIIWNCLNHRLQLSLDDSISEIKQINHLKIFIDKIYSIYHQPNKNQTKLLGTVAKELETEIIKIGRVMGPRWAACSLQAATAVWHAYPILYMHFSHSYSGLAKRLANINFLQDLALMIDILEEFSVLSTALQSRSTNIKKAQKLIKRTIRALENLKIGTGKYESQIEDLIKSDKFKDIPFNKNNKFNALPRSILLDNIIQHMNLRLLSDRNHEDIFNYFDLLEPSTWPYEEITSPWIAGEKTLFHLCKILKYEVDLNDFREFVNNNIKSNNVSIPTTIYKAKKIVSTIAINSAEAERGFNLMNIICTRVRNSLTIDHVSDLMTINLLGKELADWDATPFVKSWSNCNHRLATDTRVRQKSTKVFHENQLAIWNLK
UniProt Q8N6L1: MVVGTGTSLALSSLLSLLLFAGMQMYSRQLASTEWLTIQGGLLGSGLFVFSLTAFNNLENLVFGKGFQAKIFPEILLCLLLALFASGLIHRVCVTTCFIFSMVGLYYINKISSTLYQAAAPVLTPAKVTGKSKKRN
UniProt Q6P597: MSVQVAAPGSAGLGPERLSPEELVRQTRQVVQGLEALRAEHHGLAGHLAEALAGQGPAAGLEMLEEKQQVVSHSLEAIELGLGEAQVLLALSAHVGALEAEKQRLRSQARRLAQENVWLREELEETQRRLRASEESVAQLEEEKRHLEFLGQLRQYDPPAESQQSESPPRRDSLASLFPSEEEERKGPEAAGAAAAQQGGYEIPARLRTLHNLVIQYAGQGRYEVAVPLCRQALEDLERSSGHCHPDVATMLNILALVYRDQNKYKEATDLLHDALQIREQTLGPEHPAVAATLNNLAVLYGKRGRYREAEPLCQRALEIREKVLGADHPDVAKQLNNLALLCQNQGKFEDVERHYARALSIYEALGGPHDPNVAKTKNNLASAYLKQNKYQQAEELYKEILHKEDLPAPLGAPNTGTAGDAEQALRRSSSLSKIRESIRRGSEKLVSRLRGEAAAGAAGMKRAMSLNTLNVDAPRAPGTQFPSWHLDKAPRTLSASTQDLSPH
UniProt O75164: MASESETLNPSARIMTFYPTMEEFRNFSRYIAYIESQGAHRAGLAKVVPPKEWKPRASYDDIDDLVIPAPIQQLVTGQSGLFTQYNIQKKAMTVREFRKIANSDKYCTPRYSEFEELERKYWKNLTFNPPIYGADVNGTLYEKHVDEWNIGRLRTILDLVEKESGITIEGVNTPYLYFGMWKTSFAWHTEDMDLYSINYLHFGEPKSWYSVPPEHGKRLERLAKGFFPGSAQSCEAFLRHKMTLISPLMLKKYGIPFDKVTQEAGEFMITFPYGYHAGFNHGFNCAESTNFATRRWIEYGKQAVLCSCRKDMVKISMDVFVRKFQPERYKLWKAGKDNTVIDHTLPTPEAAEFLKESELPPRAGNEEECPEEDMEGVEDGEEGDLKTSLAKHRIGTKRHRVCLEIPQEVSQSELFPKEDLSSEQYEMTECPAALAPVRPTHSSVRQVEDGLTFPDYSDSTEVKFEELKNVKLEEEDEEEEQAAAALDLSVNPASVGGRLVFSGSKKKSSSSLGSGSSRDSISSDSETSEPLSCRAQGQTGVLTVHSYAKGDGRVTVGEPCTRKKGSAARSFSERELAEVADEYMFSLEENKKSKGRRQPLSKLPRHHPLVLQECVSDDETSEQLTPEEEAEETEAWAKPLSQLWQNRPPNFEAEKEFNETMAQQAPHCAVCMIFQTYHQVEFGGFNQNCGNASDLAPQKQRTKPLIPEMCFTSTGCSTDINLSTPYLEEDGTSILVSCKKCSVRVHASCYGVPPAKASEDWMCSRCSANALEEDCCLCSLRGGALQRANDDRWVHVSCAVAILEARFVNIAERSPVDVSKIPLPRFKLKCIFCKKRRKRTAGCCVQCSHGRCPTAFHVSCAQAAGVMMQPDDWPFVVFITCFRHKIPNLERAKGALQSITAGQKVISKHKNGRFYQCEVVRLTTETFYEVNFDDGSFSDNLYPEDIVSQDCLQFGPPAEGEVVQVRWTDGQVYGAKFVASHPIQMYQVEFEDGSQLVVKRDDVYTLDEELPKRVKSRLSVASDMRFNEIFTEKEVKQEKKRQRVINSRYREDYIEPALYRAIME
UniProt P57682: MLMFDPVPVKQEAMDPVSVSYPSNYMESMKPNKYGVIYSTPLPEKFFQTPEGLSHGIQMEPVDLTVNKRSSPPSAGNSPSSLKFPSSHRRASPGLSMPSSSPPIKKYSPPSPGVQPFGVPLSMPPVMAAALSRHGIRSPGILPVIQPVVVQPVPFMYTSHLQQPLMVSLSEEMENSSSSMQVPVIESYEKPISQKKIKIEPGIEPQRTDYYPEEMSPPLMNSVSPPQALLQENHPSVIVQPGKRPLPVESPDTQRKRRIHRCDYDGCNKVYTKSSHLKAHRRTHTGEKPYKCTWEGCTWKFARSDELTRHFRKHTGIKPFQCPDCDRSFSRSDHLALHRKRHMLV
UniProt P55268: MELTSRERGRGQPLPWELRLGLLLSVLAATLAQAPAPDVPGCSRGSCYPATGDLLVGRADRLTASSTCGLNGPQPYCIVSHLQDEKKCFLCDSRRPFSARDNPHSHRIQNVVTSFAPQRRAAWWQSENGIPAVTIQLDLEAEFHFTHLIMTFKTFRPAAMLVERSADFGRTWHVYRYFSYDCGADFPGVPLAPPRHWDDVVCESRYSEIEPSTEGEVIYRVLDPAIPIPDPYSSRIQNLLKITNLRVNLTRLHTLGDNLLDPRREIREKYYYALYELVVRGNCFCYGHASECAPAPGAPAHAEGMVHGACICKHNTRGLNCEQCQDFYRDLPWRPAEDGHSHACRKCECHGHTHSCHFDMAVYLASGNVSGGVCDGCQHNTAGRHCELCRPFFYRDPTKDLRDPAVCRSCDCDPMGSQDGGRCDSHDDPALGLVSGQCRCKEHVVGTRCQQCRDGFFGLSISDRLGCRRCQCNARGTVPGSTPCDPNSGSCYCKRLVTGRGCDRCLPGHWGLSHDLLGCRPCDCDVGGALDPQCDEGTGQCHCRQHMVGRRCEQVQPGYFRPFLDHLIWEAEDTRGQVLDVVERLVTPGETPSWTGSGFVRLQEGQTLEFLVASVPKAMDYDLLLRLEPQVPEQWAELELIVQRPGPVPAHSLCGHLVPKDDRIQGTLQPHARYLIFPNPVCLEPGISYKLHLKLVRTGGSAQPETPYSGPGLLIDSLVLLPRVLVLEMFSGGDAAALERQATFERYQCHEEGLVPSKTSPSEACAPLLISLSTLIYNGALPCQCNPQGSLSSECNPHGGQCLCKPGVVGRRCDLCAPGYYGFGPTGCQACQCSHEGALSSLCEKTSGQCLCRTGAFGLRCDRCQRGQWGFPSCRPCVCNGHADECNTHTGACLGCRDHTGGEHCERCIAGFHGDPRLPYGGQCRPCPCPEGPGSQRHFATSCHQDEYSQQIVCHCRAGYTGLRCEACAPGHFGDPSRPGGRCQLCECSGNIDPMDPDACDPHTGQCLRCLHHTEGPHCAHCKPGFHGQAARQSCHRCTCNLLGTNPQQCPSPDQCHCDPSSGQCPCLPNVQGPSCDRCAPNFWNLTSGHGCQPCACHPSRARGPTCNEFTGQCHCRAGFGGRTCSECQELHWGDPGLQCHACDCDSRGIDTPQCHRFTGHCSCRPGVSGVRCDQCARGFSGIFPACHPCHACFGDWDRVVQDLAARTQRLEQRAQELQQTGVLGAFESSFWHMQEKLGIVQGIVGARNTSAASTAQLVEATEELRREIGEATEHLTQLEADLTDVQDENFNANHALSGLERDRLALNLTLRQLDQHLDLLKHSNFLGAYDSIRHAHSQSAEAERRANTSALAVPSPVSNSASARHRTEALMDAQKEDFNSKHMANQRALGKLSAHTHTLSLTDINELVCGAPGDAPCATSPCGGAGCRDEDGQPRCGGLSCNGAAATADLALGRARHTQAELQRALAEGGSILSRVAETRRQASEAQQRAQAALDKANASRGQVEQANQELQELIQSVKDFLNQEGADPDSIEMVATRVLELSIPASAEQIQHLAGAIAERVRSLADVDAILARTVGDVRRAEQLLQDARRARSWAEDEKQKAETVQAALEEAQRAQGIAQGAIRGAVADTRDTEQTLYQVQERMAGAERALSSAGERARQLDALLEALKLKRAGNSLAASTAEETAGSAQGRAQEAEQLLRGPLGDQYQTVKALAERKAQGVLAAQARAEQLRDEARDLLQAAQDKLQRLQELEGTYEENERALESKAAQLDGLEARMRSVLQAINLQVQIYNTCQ

[1] = compound: CC(=O)c1cnc2ccc(-c3cc(Cl)c(O)c(Cl)c3)nc2c1N[C@H]1CC[C@H](CN(C)C)CC1
Procedure, shortened: as §1

ralimetinib = compound: CC(C)(C)Cn1c(N)nc2ccc(-c3[nH]c(C(C)(C)C)nc3-c3ccc(F)cc3)nc21 [ralimetinib]
Procedure, shortened: as §1

[2] = compound: CC(C)(O)CC(=O)NCCn1ccc2ncnc(Nc3ccc(Oc4cccc(C(F)(F)F)c4)c(Cl)c3)c21
Procedure, shortened: as §1

[3] = compound: CC1=C(C(CC(=O)N1)C2=CC=C(C=C2)C(F)(F)F)C(=O)NC3=C(C=C4C(=C3)C=NN4)F
Procedure, shortened: as §1

[4] = compound: CC1=C(C2=C(C=C1)C(=O)C3=CC=CC=C3N2CCCN)C
Procedure, shortened: as §1

[5] = compound: CC1=C(C=C(C=C1)NC(=O)C2=CC(=CC=C2)C(C)(C)C#N)NC3=CC4=C(C=C3)N=CN(C4=O)C
Procedure, shortened: as §1

[6] = compound: CC1=C(C=C(C=C1)NC(=O)C2=CC(=CC=C2)N(C)C)NC(=O)C3=CC=C(C=C3)O
Procedure, shortened: as §1

[7] = compound: CC1=CC=C(C=C1)SC2=C3C=C(SC3=CN=C2)C(=O)N
Procedure, shortened: as §1

vemurafenib = compound: CCCS(=O)(=O)Nc1ccc(F)c(C(=O)c2c[nH]c3ncc(-c4ccc(Cl)cc4)cc23)c1F [vemurafenib]
Procedure, shortened: as §1

[8] = compound: CCCS(=O)(=O)Nc1ccc(F)c(C(=O)c2c[nH]c3ncc(Cl)cc23)c1F
Procedure, shortened: as §1

barasertib = compound: CCN(CCCOc1ccc2c(Nc3cc(CC(=O)Nc4cccc(F)c4)[nH]n3)ncnc2c1)CCOP(=O)(O)O [barasertib]
Procedure, shortened: as §1

[9] = compound: CC[C@@H]1C(=O)N(C)c2cnc(Nc3ccc(C(=O)NC4CCN(C)CC4)cc3OC)nc2N1C1CCCC1
Procedure, shortened: as §1

volasertib = compound: CC[C@@H]1C(=O)N(C)c2cnc(Nc3ccc(C(=O)N[C@H]4CC[C@H](N5CCN(CC6CC6)CC5)CC4)cc3OC)nc2N1C(C)C [volasertib]
Procedure, shortened: as §1

[10] = compound: CCn1c(C(=O)N(C2CC2)C2CC2)cc2c3c(ncn3C)c(Nc3cc(C)n(C)n3)nc21
Procedure, shortened: as §1

[11] = compound: CCn1cc(-c2ccnc3[nH]c(-c4cccc(CN(C)C)c4)cc23)c(-c2ccc(NC(=O)N(C)C)cc2)n1
Procedure, shortened: as §1

[12] = compound: CN1CCC(CNc2ccc3ncc(-c4cccc(OC(F)(F)F)c4)n3n2)CC1
Procedure, shortened: as §1

saracatinib = compound: CN1CCN(CCOc2cc(OC3CCOCC3)c3c(Nc4c(Cl)ccc5c4OCO5)ncnc3c2)CC1 [saracatinib]
Procedure, shortened: as §1

sotrastaurin = compound: CN1CCN(c2nc(C3=C(c4c[nH]c5ccccc45)C(=O)NC3=O)c3ccccc3n2)CC1 [sotrastaurin]
Procedure, shortened: as §1

[13] = compound: CC(C)C1=C2N=C(C=C(N2N=C1)NCC3=CC=CC=C3)NCCCCCCN
Procedure, shortened: as §1

Measured: log2 fold change

KIAA0930 isoform 2 (UniProt Q6ICG6)
inactive: ibrutinib -0.16 | [1] -0.032 | ralimetinib 0.091 | [2] -0.085 | [3] -0.014 | [4] -0.119 | [5] 0.042 | [6] -0.289 | [7] -0.017 | vemurafenib -0.118 | [8] -0.009 | barasertib 0.002 | [9] 0.162 | volasertib 0.14 | [10] 0.159 | [11] -0.078 | [12] 0.028 | saracatinib 0.098 | sotrastaurin 0.075

KLHL7 (UniProt Q8IXQ5)
inactive: [1] 0.049 | ralimetinib 0.017 | [2] 0.015 | [13] 0.069 | [3] -0.108 | [4] -0.041 | [5] -0.075 | [6] 0.072 | [7] 0.029 | vemurafenib -0.248 | [8] 0.084 | [9] 0.072 | volasertib 0.029 | [10] 0.02 | [11] -0.09 | [12] 0.022 | saracatinib -0.016 | sotrastaurin 0

KIAA1549 (UniProt Q9HCM3)
inactive: ibrutinib 0.001 | ralimetinib 0.021 | [2] -0.098 | [3] 0.345 | [6] -0.021 | barasertib -0.072 | [10] 0.155

KLHL20 (UniProt Q9Y2M5)
inactive: ibrutinib -0.074 | [1] 0.083 | ralimetinib 0.038 | [2] -0.05 | [13] 0.065 | [4] -0.021 | [5] -0.069 | [6] 0.006 | [7] 0.033 | [8] 0.044 | barasertib 0.051 | [9] 0.213 | volasertib -0.012 | [10] 0.005 | [11] -0.059 | [12] 0.047 | saracatinib -0.002 | sotrastaurin -0.017

KIAA1586 (UniProt Q9HCI6)
inactive: ibrutinib -0.219 | ralimetinib -0.014 | [2] -0.008 | [13] 0.108 | [3] -0.225 | [4] -0.1 | [6] -0.001 | vemurafenib 0.024 | barasertib -0.407 | [10] -0.056 | saracatinib -0.008

KRBA1 (UniProt A5PL33)
inactive: ibrutinib 0.113 | [1] -0.185 | ralimetinib 0.054 | [2] -0.01 | [13] 0.057 | [4] 0.136 | [5] -0.107 | [6] 0.058 | [7] -0.086 | vemurafenib 0.104 | [8] -0.006 | barasertib 0.097 | [9] 0.119 | volasertib -0.087 | [10] -0.01 | [11] 0.216 | [12] -0.083 | saracatinib -0.064 | sotrastaurin -0.162

KRTCAP2 isoform 2 (UniProt Q8N6L1)
inactive: [1] 0.033 | ralimetinib 0.03 | [2] -0.304 | [13] -0.008 | [3] 0.07 | [4] -0.125 | [5] 0 | [6] -0.057 | [7] 0.012 | vemurafenib -0.067 | [8] 0.005 | [9] 0.082 | volasertib 0.041 | [10] -0.043 | [11] -0.218 | [12] 0.193 | saracatinib -0.006 | sotrastaurin 0.059

KIF20A (UniProt O95235)
inactive: ibrutinib -0.017 | ralimetinib -0.007 | [2] 0.239 | [3] -0.04 | [4] 0.014 | [5] 0.012 | [6] 0.028 | vemurafenib 0.047 | barasertib 0.004 | [9] -0.085 | [10] 0.105 | [11] -0.03 | [12] 0.148 | saracatinib 0.014 | sotrastaurin 0.038

KLC3 isoform 3 (UniProt Q6P597)
inactive: ibrutinib -0.055 | [1] 0.041 | [3] 0.002 | [5] 0.234 | [7] 0.001 | [8] -0.016 | barasertib 0.354 | [9] -0.264 | volasertib -0.099 | [11] -0.097 | [12] -0.051 | sotrastaurin 0.108

L3MBTL4 (UniProt Q8NA19)
inactive: ibrutinib 0.015 | [1] -0.064 | ralimetinib -0.037 | [2] -0.107 | [3] -0.025 | [5] -0.003 | [6] 0.047 | [7] -0.025 | vemurafenib 0.059 | [8] -0.039 | barasertib 0.113 | [9] 0.152 | volasertib 0.038 | [10] -0.054 | [11] -0.191 | [12] -0.05 | sotrastaurin -0.013

KDM4A (UniProt O75164)
inactive: ibrutinib 0.062 | ralimetinib 0.038 | [2] -0.04 | [13] -0.018 | [3] 0.008 | [4] 0 | [5] 0.031 | [6] -0.037 | vemurafenib -0.009 | barasertib -0.06 | [9] -0.056 | [10] -0.014 | [11] -0.063 | [12] 0.027 | saracatinib 0.046 | sotrastaurin -0.023

KLHDC10 (UniProt Q6PID8)
inactive: ibrutinib -0.024 | ralimetinib -0.057 | [2] 0.411 | [13] -0.05 | [3] 0.019 | [4] 0.2 | [5] -0.007 | [6] -0.062 | vemurafenib 0.032 | barasertib 0.064 | [9] -0.01 | [10] 0.034 | [11] -0.069 | [12] 0.097 | saracatinib -0.109 | sotrastaurin -0.047

KIF18B (UniProt Q86Y91)
inactive: [1] -0.157 | [4] -0.022 | [5] 0 | [7] -0.121 | [8] 0.017 | [9] 0.221 | volasertib -0.046 | saracatinib 0.04 | sotrastaurin 0.106

KLF3 (UniProt P57682)
inactive: ralimetinib -0.069 | [2] -0.074 | [3] 0.288 | [5] 0.195 | [6] -0.234 | [9] 0.193 | [10] 0.009 | sotrastaurin -0.096

2 consecutive records out of the list so far, quoted:
KDM4A (UniProt O75164)
inactive: ibrutinib 0.062 | ralimetinib 0.038 | [2] -0.04 | [13] -0.018 | [3] 0.008 | [4] 0 | [5] 0.031 | [6] -0.037 | vemurafenib -0.009 | barasertib -0.06 | [9] -0.056 | [10] -0.014 | [11] -0.063 | [12] 0.027 | saracatinib 0.046 | sotrastaurin -0.023

KLHDC10 (UniProt Q6PID8)
inactive: ibrutinib -0.024 | ralimetinib -0.057 | [2] 0.411 | [13] -0.05 | [3] 0.019 | [4] 0.2 | [5] -0.007 | [6] -0.062 | vemurafenib 0.032 | barasertib 0.064 | [9] -0.01 | [10] 0.034 | [11] -0.069 | [12] 0.097 | saracatinib -0.109 | sotrastaurin -0.047

Further records follow.

KPNB1 (UniProt J3QKQ5)
inactive: ralimetinib 0.007 | [2] -0.045 | [6] 0.334 | [10] -0.015

L3MBTL2 (UniProt Q969R5)
inactive: [3] -0.011 | [4] -0.031 | [5] 0.063 | [9] -0.068 | [11] 0.059 | [12] 0.178 | saracatinib -0.031 | sotrastaurin 0.005

KIAA0556 (UniProt O60303)
inactive: [3] -0.126

KLHL26 (UniProt Q53HC5)
inactive: [1] 0.018 | [13] -0.209 | [3] -0.254 | [4] -0.098 | [5] 0.074 | [7] 0.067 | [8] -0.126 | volasertib 0.048 | [11] -0.013 | [12] 0.229 | saracatinib 0.095 | sotrastaurin 0.02

KLHL22 (UniProt Q53GT1)
inactive: ralimetinib 0.035 | [2] -0.13 | [13] -0.003 | [4] -0.063 | [6] 0.01 | vemurafenib -0.11 | [9] 0.014 | [10] 0.064 | [11] -0.156 | [12] -0.054 | saracatinib -0.437

KLK3 (UniProt P07288)
inactive: [4] -0.86 | saracatinib -0.795

KIF20B isoform 2 (UniProt Q96Q89)
inactive: ralimetinib -0.014 | [2] -0.103 | [13] -0.089 | [3] 0.049 | [4] 0.115 | [5] 0.047 | [6] 0.033 | vemurafenib 0.062 | [9] 0.03 | [10] -0.129 | [11] 0.143 | [12] 0.061 | saracatinib -0.041 | sotrastaurin 0.079

LAMB2 (UniProt P55268)
inactive: [13] -0.327 | [4] 0.211 | [9] -0.037 | saracatinib -0.105

KPNA5 (UniProt O15131)
inactive: [13] 0.002 | [3] 0.189

KLHL7 isoform 3 (UniProt Q8IXQ5)
inactive: [1] 0 | ralimetinib 0.081 | [2] -0.215 | [3] 0.061 | [5] 0.086 | [6] 0.063 | [7] -0.029 | vemurafenib -0.079 | [8] 0.091 | [9] -0.03 | volasertib -0.073 | [10] -0.056 | [11] 0.88 | [12] 0.172 | sotrastaurin -0.015
